Laboratory results from article PMC5354814, “In silico and in vitro drug screening identifies new therapeutic approaches for Ewing sarcoma” (Oncotarget, 2016).

Legend:
Format in all cases: cell-based
[1] = system: SK-ES-1; test: In vitro high-throughput screen of FDA-approved drug library (CellTiter-Glo); conditions: Homo sapiens, SK-ES1; 1 μmol/L drug, 72 hours
Procedure: (§1) We screened, in parallel to the three computational approaches, an FDA-approved drug library containing 2,316 drugs (1,536 unique chemical entities). […] The drug screening study protocol employed is summarized in Supplementary Table S1.
(§2) Cells were grown to 80–90% confluence, harvested and aliquoted into 384-well plates (black μClear microplates, Greiner bio-one, Germany) at concentrations of 750–1,500 cells per well in a total volume of 25 μl/well using a Matrix Wellmate (Thermo Scientific). Cells were cultured for 72 hours in a 5% CO2 atmosphere at 37°C. Aliquots of 25 μl CellTiter-Glo® Reagent (Promega) were added directly to each well, the plates were incubated at room temperature for 20 min and the luminescence signal was measured according to the manufacturer's protocol. The measurements were made using Infinite® M200 Pro plate reader (Tecan, Switzerland). […] Data were normalized to percentage inhibition. […]
(§3) (A) Color scale for drug inhibition values. […]

[2] = system: Hs 919.T.; test: as above; conditions: 1 μmol/L drug, 72 hours, control cell line
Procedure: as §1, §2, §3

[3] = system: A673; test: as above; conditions: Homo sapiens, 1 μmol/L drug, 72 hours
Procedure: as §1, §2, §3

[4] = system: RD-ES; test: as above; conditions: 1 μmol/L drug, 72 hours
Procedure: as §1, §2, §3

[5] = system: Hs 919.T.; test: Hits validation, dose-response cell proliferation (CellTiter-Glo); conditions: control cell line, 12-point dose-response, mean ± SD
Procedure: These drugs were chosen based on their known mechanisms and safety profiles. We also tested the synergy between these drug hits (Supplementary Figures S6–S11). […] We evaluated the anti-proliferation effect in combination treatments using the EWS and control cell lines.
For hits validation and combination study, cells were harvested and aliquoted into 384-well plates at concentrations of 750–1,500 cells per well in a total of 20 μl/well using a Matrix Wellmate (Thermo Scientific). Five μl of culture media containing either vehicles or drug were added to each well the next day (drug concentrations range from 1 nmol/L to 50 μmol/L). For combination study, selected drugs were archived in robotically accessible plates, to which media was added in preparation for addition to master plates by a Nimbus 96 liquid-dispensing workstation (Hamilton). Liquid transfers to dilution and assay plates were handled using the same workstation. Each 384-well master plate contained four 9 by 9 dose-matrix blocks, with eight serial two-fold dilutions (concentrations range from 7.8 nmol/L to 1 μmol/L). […] Cell proliferation was evaluated using Cell-Titer Glo® reagents (Promega). IC50 values were determined for each drug using SigmaPlot (Systat Software). The combination index values were calculated using SigmaPlot (Systat Software) and CompuSyn.

[6] = system: COG-E-352; test: as above; conditions: 12-point dose-response 50 μmol/L to 1 nmol/L, mean ± SD
Procedure: (§4) For hits validation and combination study, cells were harvested and aliquoted into 384-well plates at concentrations of 750–1,500 cells per well in a total of 20 μl/well using a Matrix Wellmate (Thermo Scientific). Five μl of culture media containing either vehicles or drug were added to each well the next day (drug concentrations range from 1 nmol/L to 50 μmol/L). For combination study, selected drugs were archived in robotically accessible plates, to which media was added in preparation for addition to master plates by a Nimbus 96 liquid-dispensing workstation (Hamilton). Liquid transfers to dilution and assay plates were handled using the same workstation. Each 384-well master plate contained four 9 by 9 dose-matrix blocks, with eight serial two-fold dilutions (concentrations range from 7.8 nmol/L to 1 μmol/L). Additional wells were reserved for untreated, and vehicle-treated control wells. Cell proliferation was evaluated using Cell-Titer Glo® reagents (Promega). IC50 values were determined for each drug using SigmaPlot (Systat Software). The combination index values were calculated using SigmaPlot (Systat Software) and CompuSyn.

[7] = system: Hs 863.T.; test: as above; conditions: control cell line, 12-point dose-response, mean ± SD
Procedure: as §4

[8] = system: CHLA-258; test: as above; conditions: 12-point dose-response 50 μmol/L to 1 nmol/L, mean ± SD
Procedure: as §4

[9] = system: TC-71; test: as above; conditions: 12-point dose-response 50 μmol/L to 1 nmol/L, mean ± SD
Procedure: as §4

[10] = system: SK-ES-1; test: as above; conditions: Homo sapiens, SK-ES1; 12-point dose-response 50 μmol/L to 1 nmol/L, mean ± SD
Procedure: as §4

[11] = system: Hs 822.T.; test: as above; conditions: control cell line, 12-point dose-response, mean ± SD
Procedure: as §4

[12] = system: RD-ES; test: as above; conditions: 12-point dose-response 50 μmol/L to 1 nmol/L, mean ± SD
Procedure: as §4

| IC50 [10] [µM] | Compound | inhibition at 1 µM [1] [%] | inhibition at 1 µM [2] [%] | inhibition at 1 µM [3] [%] | inhibition at 1 µM [4] [%] | IC50 [5] [µM] | IC50 [6] [µM] | IC50 [7] [µM] | IC50 [8] [µM] | IC50 [9] [µM] | IC50 [11] [µM] | IC50 [12] [µM] |
| --- | --- | --- | --- | --- | --- | --- | --- | --- | --- | --- | --- | --- |
| – | CN1CCC[C@@H]1CCO[C@](C)(c1ccccc1)c1ccc(Cl)cc1 [Clemastine] | < 50 | < 50 | 60 | < 50 | – | – | – | – | – | – | – |
| 15.9 ± 2.47 | CSc1ccc2c(c1)N(CCC1CCCCN1C)c1ccccc1S2 (stereo not drawn) [Thioridazine] | – | – | – | – | 8.84 ± 1.29 | 10.6 ± 4.37 | 9.24 ± 2.01 | 16.1 ± 5.52 | 15.9 ± 1.38 | 8.5 ± 1.58 | 15 ± 1.45 |
